# Reference: the supplement of paper PMC8728848
# This is one part of the list.
# B1: HA-00510 (Pseudomonas aeruginosa), Q02V39_PSEAB (protein)
# chain: GVPIVNIATPNGAGLSNNHFRDYNVGANGLILNNATGKTQGTQLGGIILGNPNLKGQAAQVILNQVTGGNRSTLAGYTEVAGQSARVIVANPHGITCQGCGFINTPRATLTTGKPIMDGQRLERFQVDGGDIVVEGAELNVGNLEQFDLITRSAKLNAKLYAKNLNIVTGRNDVQADSLQATPRAADGSEKPQLAIDSSALGGMYAGAIRLVGTEQGVGVKLAGDMAASGGDIRIDASGKLSLAQASSQGDLKIAAQAVELNGKTYAGGSAEIRSAEELVNRQS
# Tests used:
# Assay in all cases: glycan array binding signal (z-score within array); higher = stronger binding
# Conditions in all cases: glycan notation: IUPAC condensed, linker removed
# [1] = molecular target: Man(a1-2)Man(a1-3)[Man(a1-2)Man(a1-6)]Man
# Outline: (§1)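 Glycan array binding is given as a within-array Z-score, which can be read as non-binding when negative. The arrays, 3228 of them, came from the Consortium for Functional Glycomics database and were retained only where the protein sequence was available. Z-scores were averaged across arrays of the same protein sequence at different concentrations or buffers and across linkers.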
# [2] = molecular target: Man(a1-2)Man(a1-3)[Man(a1-2)Man(a1-6)]Man(a1-6)[Man(a1-2)Man(a1-2)Man(a1-3)]Man
# Outline: as §1
# [3] = molecular target: Man(a1-2)Man(a1-3)[Man(a1-2)Man(a1-6)]Man(a1-6)[Man(a1-2)Man(a1-2)Man(a1-3)]Man(b1-4)GlcNAc(b1-4)GlcNAc
# Outline: as §1
# [4] = molecular target: Man(a1-2)Man(a1-3)[Man(a1-6)]Man(a1-6)[Man(a1-2)Man(a1-3)]Man(b1-4)GlcNAc(b1-4)GlcNAc
# Outline: as §1
# [5] = molecular target: Man(a1-2)Man(a1-6)[Man(a1-3)]Man(a1-6)[Man(a1-2)Man(a1-2)Man(a1-3)]Man
# Outline: as §1
# [6] = molecular target: Man(a1-2)Man(a1-6)[Man(a1-3)]Man(a1-6)[Man(a1-2)Man(a1-2)Man(a1-3)]Man(b1-4)GlcNAc(b1-4)GlcNAc
# Outline: as §1
# [7] = molecular target: Man(a1-3)[Man(a1-6)]Man
# Outline: as §1
# [8] = molecular target: Man(a1-3)[Man(a1-6)]Man(a1-6)[Man(a1-2)Man(a1-3)]Man(b1-4)GlcNAc(b1-4)GlcNAc
# Outline: as §1
# [9] = molecular target: Man(a1-3)[Man(a1-6)]Man(a1-6)[Man(a1-3)]Man
# Outline: as §1
# [10] = molecular target: Man(a1-3)[Man(a1-6)]Man(a1-6)[Man(a1-3)]Man(b1-4)GlcNAc(b1-4)GlcNAc
# Outline: as §1
# [11] = molecular target: Man(a1-3)[Man(a1-6)]Man(b1-4)GlcNAc(b1-4)GlcNAc
# Outline: as §1
# [12] = molecular target: Man(a1-3)[Man(a1-6)]Man(b1-4)GlcNAc(b1-4)[Fuc(a1-6)]GlcNAc
# Outline: as §1
# [13] = molecular target: Man(a1-6)Man
# Outline: as §1
# [14] = molecular target: Man(b1-4)GlcNAc
# Outline: as §1
# [15] = molecular target: MurNAc(b1-4)GlcNAc
# Outline: as §1
# [16] = molecular target: Neu5Ac(a2-3)Gal
# Outline: as §1
# [17] = molecular target: Neu5Ac(a2-3)Gal(b1-3)GalNAc
# Outline: as §1
# [18] = molecular target: Neu5Ac(a2-3)Gal(b1-3)GalNAc(b1-3)Gal(a1-4)Gal(b1-4)Glc
# Outline: as §1
# [19] = molecular target: Neu5Ac(a2-3)Gal(b1-3)GalNAc(b1-4)Gal(b1-4)Glc
# Outline: as §1
# [20] = molecular target: Neu5Ac(a2-3)Gal(b1-3)GalNAc(b1-4)[Neu5Ac(a2-3)]Gal(b1-4)Glc
# Outline: as §1
# [21] = molecular target: Neu5Ac(a2-3)Gal(b1-3)GalNAc(b1-4)[Neu5Ac(a2-8)Neu5Ac(a2-3)]Gal(b1-4)Glc
# Outline: as §1
# [22] = molecular target: Neu5Ac(a2-3)Gal(b1-3)GalNAc6S
# Outline: as §1
# [23] = molecular target: Neu5Ac(a2-3)Gal(b1-3)GlcNAc
# Outline: as §1
# [24] = molecular target: Neu5Ac(a2-3)Gal(b1-3)GlcNAc(b1-2)Man
# Outline: as §1
# [25] = molecular target: Neu5Ac(a2-3)Gal(b1-3)GlcNAc(b1-2)Man(a1-3)[GlcNAc(b1-4)][Neu5Ac(a2-3)Gal(b1-3)GlcNAc(b1-2)Man(a1-6)]Man(b1-4)GlcNAc(b1-4)GlcNAc
# Outline: as §1
# [26] = molecular target: Neu5Ac(a2-3)Gal(b1-3)GlcNAc(b1-2)Man(a1-3)[Neu5Ac(a2-3)Gal(b1-3)GlcNAc(b1-2)Man(a1-6)]Man(b1-4)GlcNAc(b1-4)GlcNAc
# Outline: as §1
# [27] = molecular target: Neu5Ac(a2-3)Gal(b1-3)GlcNAc(b1-2)[Neu5Ac(a2-3)Gal(b1-3)GlcNAc(b1-4)]Man(a1-6)[Neu5Ac(a2-3)Gal(b1-3)GlcNAc(b1-2)Man(a1-3)]Man(b1-4)GlcNAc(b1-4)GlcNAc
# Outline: as §1
# [28] = molecular target: Neu5Ac(a2-3)Gal(b1-3)GlcNAc(b1-3)Gal(b1-3)GlcNAc
# Outline: as §1
# [29] = molecular target: Neu5Ac(a2-3)Gal(b1-3)GlcNAc(b1-3)Gal(b1-4)GlcNAc
# Outline: as §1
# [30] = molecular target: Neu5Ac(a2-3)Gal(b1-3)GlcNAc(b1-3)GalNAc
# Outline: as §1
# [31] = molecular target: Neu5Ac(a2-3)Gal(b1-3)GlcNAc(b1-6)GalNAc
# Outline: as §1
# [32] = molecular target: Neu5Ac(a2-3)Gal(b1-3)GlcNAc6S
# Outline: as §1
# [33] = molecular target: Neu5Ac(a2-3)Gal(b1-3)[Fuc(a1-4)]GlcNAc
# Outline: as §1
# [34] = molecular target: Neu5Ac(a2-3)Gal(b1-3)[Fuc(a1-4)]GlcNAc(b1-3)Gal(b1-3)[Fuc(a1-4)]GlcNAc
# Outline: as §1
# [35] = molecular target: Neu5Ac(a2-3)Gal(b1-3)[Fuc(a1-4)]GlcNAc(b1-3)Gal(b1-4)[Fuc(a1-3)]GlcNAc
# Outline: as §1
# [36] = molecular target: Neu5Ac(a2-3)Gal(b1-3)[GlcNAc(b1-6)]GalNAc
# Outline: as §1
# [37] = molecular target: Neu5Ac(a2-3)Gal(b1-3)[Neu5Ac(a2-6)]GalNAc
# Outline: as §1
# [38] = molecular target: Neu5Ac(a2-3)Gal(b1-3)[Neu5Ac(a2-6)]GlcNAc(b1-3)[Fuc(a1-3)[Gal(b1-4)]GlcNAc(b1-6)]Gal(b1-4)Glc
# Outline: as §1
# [39] = molecular target: Neu5Ac(a2-3)Gal(b1-3)]Neu5Ac(a2-3)Gal(b1-4)]GlcNAc
# Outline: as §1
# [40] = molecular target: Neu5Ac(a2-3)Gal(b1-4)Glc
# Outline: as §1
# [41] = molecular target: Neu5Ac(a2-3)Gal(b1-4)GlcNAc
# Outline: as §1
# [42] = molecular target: Neu5Ac(a2-3)Gal(b1-4)GlcNAc(b1-2)Man
# Outline: as §1
# [43] = molecular target: Neu5Ac(a2-3)Gal(b1-4)GlcNAc(b1-2)Man(a1-3)[GlcNAc(b1-4)][Neu5Ac(a2-3)Gal(b1-4)GlcNAc(b1-2)Man(a1-6)]Man(b1-4)GlcNAc(b1-4)GlcNAc
# Outline: as §1
# [44] = molecular target: Neu5Ac(a2-3)Gal(b1-4)GlcNAc(b1-2)Man(a1-3)[Neu5Ac(a2-3)Gal(b1-4)GlcNAc(b1-2)Man(a1-6)]Man(b1-4)GlcNAc(b1-4)GlcNAc
# Outline: as §1
# [45] = molecular target: Neu5Ac(a2-3)Gal(b1-4)GlcNAc(b1-2)Man(a1-3)[Neu5Ac(a2-3)Gal(b1-4)GlcNAc(b1-2)Man(a1-6)]Man(b1-4)GlcNAc(b1-4)[Fuc(a1-6)]GlcNAc
# Outline: as §1
binder,measurement,setting,value
B1,glycan array binding signal (z-score),[1],-0.708
same,glycan array binding signal (z-score),[2],-0.917
same,glycan array binding signal (z-score),[3],0.043
same,glycan array binding signal (z-score),[4],-0.534
same,glycan array binding signal (z-score),[5],0.121
same,glycan array binding signal (z-score),[6],-0.478
same,glycan array binding signal (z-score),[7],0.04
same,glycan array binding signal (z-score),[8],0.521
same,glycan array binding signal (z-score),[9],-0.502
same,glycan array binding signal (z-score),[10],-0.227
same,glycan array binding signal (z-score),[11],-0.254
same,glycan array binding signal (z-score),[12],-0.274
same,glycan array binding signal (z-score),[13],-1.07
same,glycan array binding signal (z-score),[14],-0.041
same,glycan array binding signal (z-score),[15],-0.558
same,glycan array binding signal (z-score),[16],-0.577
same,glycan array binding signal (z-score),[17],-0.342
same,glycan array binding signal (z-score),[18],-0.696
same,glycan array binding signal (z-score),[19],-0.523
same,glycan array binding signal (z-score),[20],0.112
same,glycan array binding signal (z-score),[21],0.683
same,glycan array binding signal (z-score),[22],-0.064
same,glycan array binding signal (z-score),[23],0.098
same,glycan array binding signal (z-score),[24],-0.852
same,glycan array binding signal (z-score),[25],-0.136
same,glycan array binding signal (z-score),[26],-0.642
same,glycan array binding signal (z-score),[27],0.759
same,glycan array binding signal (z-score),[28],-1.16
same,glycan array binding signal (z-score),[29],-1.13
same,glycan array binding signal (z-score),[30],0.479
same,glycan array binding signal (z-score),[31],-0.621
same,glycan array binding signal (z-score),[32],-0.526
same,glycan array binding signal (z-score),[33],-0.027
same,glycan array binding signal (z-score),[34],-0.302
same,glycan array binding signal (z-score),[35],-0.574
same,glycan array binding signal (z-score),[36],-0.796
same,glycan array binding signal (z-score),[37],0.187
same,glycan array binding signal (z-score),[38],1.21
same,glycan array binding signal (z-score),[39],0.238
same,glycan array binding signal (z-score),[40],0.867
same,glycan array binding signal (z-score),[41],-0.549
same,glycan array binding signal (z-score),[42],1.18
same,glycan array binding signal (z-score),[43],0.029
same,glycan array binding signal (z-score),[44],1.19
same,glycan array binding signal (z-score),[45],0.601

# Reformatted: entries from further up.
binder | measurement | setting | value
B1 | glycan array binding signal (z-score) | [4] | -0.534
same | glycan array binding signal (z-score) | [5] | 0.121
